For 16 molecules, binding results are on record in patent US20190144550A1.

Sequences and labels used below:
B1: 20E12.HL scFv-Fc protein (Fc fusion, not shown: a dimerising Fc or GST)
chain: EVNLVESGGGLVKPGGSLRLSCEASGFTFSYAWMSWVRQAPGKGLEWVGRIKSIADGGATDYAAPVRNRFTISRDDSRNTLYLEMHSLKTEDTAVYYCTTIPGNDAFDMWGQGTMVTVSSGGGGSGGGGSGGGGSGGGGSDIVLTQSPLSLSVTPGEPASISCRSSQSLLYSNGKNYLDWFLHKPGQSPQLLIYLGSNRASGVPDRFSGSGSGIDFILKISRVEAEDVGVYYCMQAQQTPITFGQGTRLEIK
B2: 32G8.HL scFv-Fc protein (Fc fusion, not shown: a dimerising Fc or GST)
chain: B1 chain with A55T, A59V, T60I, F70C, A106D, T114R
B3: 32A10.HL scFv-Fc protein (Fc fusion, not shown: a dimerising Fc or GST)
chain: QVTLKESGPVLVKPTETLTLTCTVSGFSLSNARMGVSWIRQPPGKALEWLAHIFSTDEKSIRRSLRSRLTLSKDTSKSQVVLTMTNMDPVDTATYFCARDSSNYEGYFDYWGQGTLVTVSSGGGGSGGGGSGGGGSGGGGSEVVMTQSPATLSVSPGERVTLSCRASQSVSSNFAWYQQRPGQAPRLLLYGATTRATGLPGRFSGSGSGTENILTISSLQSEDFAIYFCQQYKDWPFTFGPGSKVDIK
B4: h62G7-L6/EQ scFv-Fc protein (Fc fusion, not shown: a dimerising Fc or GST)
chain: DVVMTQSPLSLPVTLGQPASISCKSSQSLLYSNGKTYLNWFQQRPGQSPRRLIYQVSKLDSGVPDRFSGSGSGTDFTLKISRVEAEDVGVYYCGQDTHFPLTFGGGTKVEIKGGGGSGGGGSGGGGSGGGGSQVQLVQSGAEVKKPGASVKVSCKASGYTFTDYTLHWVRQAPGQGLEWMGGIWPITGGTTYNQKFKGRVTMTRDTSTSTVYMELSSLRSEDTAVYYCARGEAQGSWGQGTLVTVSS
B5: 20E12.LH scFv-Fc protein (Fc fusion, not shown: a dimerising Fc or GST)
chain: DIVLTQSPLSLSVTPGEPASISCRSSQSLLYSNGKNYLDWFLHKPGQSPQLLIYLGSNRASGVPDRFSGSGSGIDFILKISRVEAEDVGVYYCMQAQQTPITFGQGTRLEIKGGGGSGGGGSGGGGSGGGGSEVNLVESGGGLVKPGGSLRLSCEASGFTFSYAWMSWVRQAPGKGLEWVGRIKSIADGGATDYAAPVRNRFTISRDDSRNTLYLEMHSLKTEDTAVYYCTTIPGNDAFDMWGQGTMVTVSS
B6: 42G9.HL scFv-Fc protein (Fc fusion, not shown: a dimerising Fc or GST)
chain: QVTLKESGPVLLKPTETLTLTCTVSGFSLSNPRMGVSWIRQPPGKALEWFAHIFSTDEKSLKLSLRSRLTLSKDTSKSQVVLTMTNMAPVDSATYYCARDSSNYEGYFDFWGQGTLVTVSSGGGGSGGGGSGGGGSGGGGSEVVLTQSPATLSVSPGERATLSCRASQSVRSNLAWYQQKSGQAPRLLIYGSTIRATGVPARFSGSGSGTEFTLTISSLQSEDFAVYYCQQYSDWPFTFGPGTKVDIK
B7: 14C11.HL scFv-Fc protein (Fc fusion, not shown: a dimerising Fc or GST)
chain: QVTLKESGPVLVKPTETLTLTCTVSGFSLNNARMGVSWIRQPPGKALEWFAHIFSTDEKSFRTSLRSRLTLSKDTSKSQVVLTMTNMDPVDTATYYCARDSSNYEGYFDYWGQGILVTVSSGGGGSGGGGSGGGGSGGGGSEIVMTQSPATLSVSPGERATLSCRASQSVSNNLAWYQQKPGQAPRLLIYGASTRATGVPARFSGSDSGTEFSLTISSLQSEDFAVYFCQQYKDWPFTFGPGTKVEIK
B8: 20B9.HL scFv-Fc protein (Fc fusion, not shown: a dimerising Fc or GST)
chain: QVTLKESGPVLVKPTETLTLTCTVSGFSLSNARMGVSWIRQPPGKALEWLGHIFSTDEKSYSTSLRGRITISKDTSRGLVVLTLTNMDPVDTATYYCARDSSNYEGYFDFWGPGFLVTVSSGGGGSGGGGSGGGGSGGGGSEIVMTQSPATLSVSPGERATLSCRVSQSIGANLAWYQQKFGQAPRLLIYGASTRATGIPVRFSGGGSGTEFTLTISSLQSEDFAIYSCQQYIYWPFTFGPGTTVDIK
B9: 42G9.LH scFv-Fc protein (Fc fusion, not shown: a dimerising Fc or GST)
chain: EVVLTQSPATLSVSPGERATLSCRASQSVRSNLAWYQQKSGQAPRLLIYGSTIRATGVPARFSGSGSGTEFTLTISSLQSEDFAVYYCQQYSDWPFTFGPGTKVDIKGGGGSGGGGSGGGGSGGGGSQVTLKESGPVLLKPTETLTLTCTVSGFSLSNPRMGVSWIRQPPGKALEWFAHIFSTDEKSLKLSLRSRLTLSKDTSKSQVVLTMTNMAPVDSATYYCARDSSNYEGYFDFWGQGTLVTVSS
B10: 14C11.LH scFv-Fc protein (Fc fusion, not shown: a dimerising Fc or GST)
chain: EIVMTQSPATLSVSPGERATLSCRASQSVSNNLAWYQQKPGQAPRLLIYGASTRATGVPARFSGSDSGTEFSLTISSLQSEDFAVYFCQQYKDWPFTFGPGTKVEIKGGGGSGGGGSGGGGSGGGGSQVTLKESGPVLVKPTETLTLTCTVSGFSLNNARMGVSWIRQPPGKALEWFAHIFSTDEKSFRTSLRSRLTLSKDTSKSQVVLTMTNMDPVDTATYYCARDSSNYEGYFDYWGQGILVTVSS
B11: 26B9.HL scFv-Fc protein (Fc fusion, not shown: a dimerising Fc or GST)
chain: EVQLVESWGVLVKPGGSLRLSCAASGFIFNNAWMSWVRQAPGKGLEWIGRIKSKSDGGTTDYAAPVKDRFTISRDDSKDTLYLQMNGLKTEDTAVYFCTTAPGGPFDYWGQGTLVTVSSGGGGSGGGGSGGGGSGGGGSDIVLTQSPLSLPVTPGEPASISCRSSQSLLHRDGFNYLDWFLQKPGQSPQLLIYLASSRASGVPDRFSGSDSGTDFTLKISRVEAEDVGVYYCMQALQTPITFGQGTRLEIK
B12: 26B9.LH scFv-Fc protein (Fc fusion, not shown: a dimerising Fc or GST)
chain: DIVLTQSPLSLPVTPGEPASISCRSSQSLLHRDGFNYLDWFLQKPGQSPQLLIYLASSRASGVPDRFSGSDSGTDFTLKISRVEAEDVGVYYCMQALQTPITFGQGTRLEIKGGGGSGGGGSGGGGSGGGGSEVQLVESWGVLVKPGGSLRLSCAASGFIFNNAWMSWVRQAPGKGLEWIGRIKSKSDGGTTDYAAPVKDRFTISRDDSKDTLYLQMNGLKTEDTAVYFCTTAPGGPFDYWGQGTLVTVSS
B13: 32A10.LH scFv-Fc protein (Fc fusion, not shown: a dimerising Fc or GST)
chain: EVVMTQSPATLSVSPGERVTLSCRASQSVSSNFAWYQQRPGQAPRLLLYGATTRATGLPGRFSGSGSGTENILTISSLQSEDFAIYFCQQYKDWPFTFGPGSKVDIKGGGGSGGGGSGGGGSGGGGSQVTLKESGPVLVKPTETLTLTCTVSGFSLSNARMGVSWIRQPPGKALEWLAHIFSTDEKSIRRSLRSRLTLSKDTSKSQVVLTMTNMDPVDTATYFCARDSSNYEGYFDYWGQGTLVTVSS
B14: 20B9.LH scFv-Fc protein (Fc fusion, not shown: a dimerising Fc or GST)
chain: EIVMTQSPATLSVSPGERATLSCRVSQSIGANLAWYQQKFGQAPRLLIYGASTRATGIPVRFSGGGSGTEFTLTISSLQSEDFAIYSCQQYIYWPFTFGPGTTVDIKGGGGSGGGGSGGGGSGGGGSQVTLKESGPVLVKPTETLTLTCTVSGFSLSNARMGVSWIRQPPGKALEWLGHIFSTDEKSYSTSLRGRITISKDTSRGLVVLTLTNMDPVDTATYYCARDSSNYEGYFDFWGPGFLVTVSS
B15: 30D8.HL scFv-Fc protein (Fc fusion, not shown: a dimerising Fc or GST)
chain: EVQLVESGGGLVKPGGSLRLSCEASGFTFSDAWMSWVRQAPGKGLEWVGRIKSKTDGGTTDYVVPLNGRFIISRDDSRNTLYLQLNNLKTEDTAVYYCTTVPGSYGYWGQGTLVTVSSGGGGSGGGGSGGGGSGGGGSDIVMTQSPLSLPVTPGEPASISCRSSQSLLHNKRNNYLDWFLQKPGQSPQLLIYLASNRASGVPDRFSGGGSGTDFTLKISRVEAEDVGVYYCMQAQQTPITFGQGTRLEIK
B16: 30D8.LH scFv-Fc protein (Fc fusion, not shown: a dimerising Fc or GST)
chain: DIVMTQSPLSLPVTPGEPASISCRSSQSLLHNKRNNYLDWFLQKPGQSPQLLIYLASNRASGVPDRFSGGGSGTDFTLKISRVEAEDVGVYYCMQAQQTPITFGQGTRLEIKGGGGSGGGGSGGGGSGGGGSEVQLVESGGGLVKPGGSLRLSCEASGFTFSDAWMSWVRQAPGKGLEWVGRIKSKTDGGTTDYVVPLNGRFIISRDDSRNTLYLQLNNLKTEDTAVYYCTTVPGSYGYWGQGTLVTVSS

Numbering of substitutions follows the chain as printed. Results are given in words; binding and its absence hold for the method and conditions named. Binding calls can cover weak binding; strength is not graded here. Tags and fused reporters may be left off the sequences shown.

This experiment addresses Monomeric 8-histidine tagged human EGFRvIII extracellular domain (human). Kind of experiment: SPR, scFv-Fc captured by anti-human Fc, 37 C. In general terms: SPR reads the build-up and loss of mass on a sensor chip optically.
On to B1, for which the binding entry is reported as “binds”.

As to B2, the binding entry is given as “binds”. For B3, the binding entry is “binds”. As for B4, the binding entry is “binds”. B5: the binding entry was “binds”. As to B6, the binding result is “binds”. Regarding B7, the binding entry is listed as “binds”. As for B8, the binding entry was “binds”. Take B9: the binding result is listed as “binds”. B10: the binding entry is “binds”. For B11, the binding result is “binds”. On to B12, for which the binding result is “binds”.

With B13, the binding result is reported as “binds”. For the molecule B14, the binding result was “binds”.

Take B15: the binding entry is listed as “binds”. B16: the binding result is reported as “binds”.
